Our source for the binding values is paper PMC4092868.

Protein sequences, listed by entry. Tags and fused reporters are not part of them. Lines headed by an entry give the natural chain unless they say otherwise; changes in a name come on top.
UniProt P48510: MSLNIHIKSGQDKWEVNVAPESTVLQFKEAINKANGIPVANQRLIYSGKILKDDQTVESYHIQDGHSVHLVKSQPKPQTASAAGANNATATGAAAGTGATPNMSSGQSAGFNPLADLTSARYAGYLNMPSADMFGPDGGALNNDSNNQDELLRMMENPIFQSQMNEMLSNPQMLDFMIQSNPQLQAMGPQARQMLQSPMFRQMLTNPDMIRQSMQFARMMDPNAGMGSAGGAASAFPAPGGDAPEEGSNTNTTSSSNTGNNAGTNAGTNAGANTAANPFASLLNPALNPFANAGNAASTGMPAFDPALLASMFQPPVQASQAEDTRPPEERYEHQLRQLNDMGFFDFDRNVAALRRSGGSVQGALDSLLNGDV
UniProt P40006: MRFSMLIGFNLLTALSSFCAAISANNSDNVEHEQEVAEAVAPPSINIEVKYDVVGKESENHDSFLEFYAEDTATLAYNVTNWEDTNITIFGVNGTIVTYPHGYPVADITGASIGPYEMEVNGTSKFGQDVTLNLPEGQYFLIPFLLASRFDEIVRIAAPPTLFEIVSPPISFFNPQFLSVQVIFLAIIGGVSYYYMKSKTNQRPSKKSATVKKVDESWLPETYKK

Experiment [1] concerns the target T1, GST-Ddi1, recombinant from E. coli (S. cerevisiae) (UniProt P40087).
T1 sequence: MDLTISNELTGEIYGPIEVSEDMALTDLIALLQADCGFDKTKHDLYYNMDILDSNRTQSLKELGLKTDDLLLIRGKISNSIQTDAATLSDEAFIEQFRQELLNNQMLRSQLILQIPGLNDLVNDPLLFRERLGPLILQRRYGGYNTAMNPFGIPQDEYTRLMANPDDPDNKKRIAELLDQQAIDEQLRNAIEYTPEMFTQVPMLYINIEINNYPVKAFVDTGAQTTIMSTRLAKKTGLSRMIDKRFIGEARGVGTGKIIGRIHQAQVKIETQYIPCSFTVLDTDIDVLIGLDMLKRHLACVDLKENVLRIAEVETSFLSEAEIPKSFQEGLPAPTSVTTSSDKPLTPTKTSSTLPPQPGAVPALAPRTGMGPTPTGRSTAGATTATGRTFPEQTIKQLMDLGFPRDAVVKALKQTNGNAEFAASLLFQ
Put plainly: condition: recombinant proteins (1 mg) in 500 μL lysis buffer; pull-down; in vitro; His6-T7-Irc22 mixed with GST fusions (recombinant proteins from E. coli, 1 mg) in lysis buffer and incubated with glutathione-Sepharose 4B, 1 h at 4 °C; immunoblot with anti-T7; both purified. In general terms: In western blotting, separated proteins are transferred to a membrane and probed.

Experiment [2] concerns the target GST-Dsk2, recombinant from E. coli (S. cerevisiae) (UniProt P48510). Described as above.
Experiment [3] has as its target T2, GST-Rad23, recombinant from E. coli (S. cerevisiae) (UniProt P32628).
T2 sequence: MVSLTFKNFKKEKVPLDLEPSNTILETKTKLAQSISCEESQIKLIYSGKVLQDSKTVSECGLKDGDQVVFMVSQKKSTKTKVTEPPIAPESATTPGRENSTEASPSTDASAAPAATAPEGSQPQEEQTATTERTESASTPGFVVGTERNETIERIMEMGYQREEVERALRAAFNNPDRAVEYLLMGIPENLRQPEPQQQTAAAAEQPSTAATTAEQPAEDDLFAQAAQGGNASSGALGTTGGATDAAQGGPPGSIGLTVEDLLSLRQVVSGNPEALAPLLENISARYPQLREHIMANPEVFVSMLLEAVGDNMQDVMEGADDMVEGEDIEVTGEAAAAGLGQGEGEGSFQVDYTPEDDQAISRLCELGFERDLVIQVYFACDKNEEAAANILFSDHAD
The experiment is described as above.

For experiment [4], the target named is T3, GST-Pth2, recombinant from E. coli (S. cerevisiae) (UniProt P34222).
T3 sequence: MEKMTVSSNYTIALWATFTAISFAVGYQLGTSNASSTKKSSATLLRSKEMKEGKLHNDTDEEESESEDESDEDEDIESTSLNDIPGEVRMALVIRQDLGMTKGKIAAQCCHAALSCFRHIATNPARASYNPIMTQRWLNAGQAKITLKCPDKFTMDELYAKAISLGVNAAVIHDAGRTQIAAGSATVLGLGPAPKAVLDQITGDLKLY
Put plainly: pull-down; in vitro; His6-T7-Irc22 mixed with GST fusions (recombinant proteins from E. coli, 1 mg) in lysis buffer and incubated with glutathione-Sepharose 4B, 1 h at 4 °C; immunoblot with anti-T7; both purified.

No constants are given. Whether binding was seen depends on the method and setting. For some of these results: Binding calls can cover weak binding; strength is not graded here. For some of these results: Sequences can lack the tags named with a protein.

On to His6-T7-Irc22 (from UniProt P40006), for which the binding entry is listed as “no binding” in experiment [1], “no binding” in experiment [2], “no binding” in experiment [3] and “binds” in experiment [4].
